In the supplement of paper PMC10849652:
This is one part of the list. Residues, ends and D or L forms follow the SMILES beside them. *: point of attachment. Cbz = O=C(OCc1ccccc1)*

Chains of the proteins cited; added tags and fusions are not shown. Lines headed by an entry give the natural chain unless they say otherwise; changes in a name come on top.
UniProt Q8WVD3: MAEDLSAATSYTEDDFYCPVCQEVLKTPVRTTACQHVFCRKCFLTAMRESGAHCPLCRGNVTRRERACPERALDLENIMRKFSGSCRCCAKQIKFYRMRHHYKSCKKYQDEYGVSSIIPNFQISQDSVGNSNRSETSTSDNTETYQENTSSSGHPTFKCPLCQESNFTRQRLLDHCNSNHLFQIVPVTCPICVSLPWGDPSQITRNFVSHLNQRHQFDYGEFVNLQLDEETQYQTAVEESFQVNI
UniProt Q92963, whole entry, looked up: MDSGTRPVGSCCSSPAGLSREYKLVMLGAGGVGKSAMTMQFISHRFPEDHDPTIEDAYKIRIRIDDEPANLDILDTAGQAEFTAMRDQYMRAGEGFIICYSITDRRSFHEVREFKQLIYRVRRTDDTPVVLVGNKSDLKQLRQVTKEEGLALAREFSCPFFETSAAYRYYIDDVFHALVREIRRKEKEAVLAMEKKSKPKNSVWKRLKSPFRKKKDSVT
UniProt Q96GF1: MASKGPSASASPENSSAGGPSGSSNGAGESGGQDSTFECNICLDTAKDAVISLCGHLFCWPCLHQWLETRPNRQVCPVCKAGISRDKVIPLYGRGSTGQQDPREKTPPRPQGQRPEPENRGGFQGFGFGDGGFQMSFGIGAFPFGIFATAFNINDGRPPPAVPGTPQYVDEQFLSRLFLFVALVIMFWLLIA
UniProt Q5UIP0: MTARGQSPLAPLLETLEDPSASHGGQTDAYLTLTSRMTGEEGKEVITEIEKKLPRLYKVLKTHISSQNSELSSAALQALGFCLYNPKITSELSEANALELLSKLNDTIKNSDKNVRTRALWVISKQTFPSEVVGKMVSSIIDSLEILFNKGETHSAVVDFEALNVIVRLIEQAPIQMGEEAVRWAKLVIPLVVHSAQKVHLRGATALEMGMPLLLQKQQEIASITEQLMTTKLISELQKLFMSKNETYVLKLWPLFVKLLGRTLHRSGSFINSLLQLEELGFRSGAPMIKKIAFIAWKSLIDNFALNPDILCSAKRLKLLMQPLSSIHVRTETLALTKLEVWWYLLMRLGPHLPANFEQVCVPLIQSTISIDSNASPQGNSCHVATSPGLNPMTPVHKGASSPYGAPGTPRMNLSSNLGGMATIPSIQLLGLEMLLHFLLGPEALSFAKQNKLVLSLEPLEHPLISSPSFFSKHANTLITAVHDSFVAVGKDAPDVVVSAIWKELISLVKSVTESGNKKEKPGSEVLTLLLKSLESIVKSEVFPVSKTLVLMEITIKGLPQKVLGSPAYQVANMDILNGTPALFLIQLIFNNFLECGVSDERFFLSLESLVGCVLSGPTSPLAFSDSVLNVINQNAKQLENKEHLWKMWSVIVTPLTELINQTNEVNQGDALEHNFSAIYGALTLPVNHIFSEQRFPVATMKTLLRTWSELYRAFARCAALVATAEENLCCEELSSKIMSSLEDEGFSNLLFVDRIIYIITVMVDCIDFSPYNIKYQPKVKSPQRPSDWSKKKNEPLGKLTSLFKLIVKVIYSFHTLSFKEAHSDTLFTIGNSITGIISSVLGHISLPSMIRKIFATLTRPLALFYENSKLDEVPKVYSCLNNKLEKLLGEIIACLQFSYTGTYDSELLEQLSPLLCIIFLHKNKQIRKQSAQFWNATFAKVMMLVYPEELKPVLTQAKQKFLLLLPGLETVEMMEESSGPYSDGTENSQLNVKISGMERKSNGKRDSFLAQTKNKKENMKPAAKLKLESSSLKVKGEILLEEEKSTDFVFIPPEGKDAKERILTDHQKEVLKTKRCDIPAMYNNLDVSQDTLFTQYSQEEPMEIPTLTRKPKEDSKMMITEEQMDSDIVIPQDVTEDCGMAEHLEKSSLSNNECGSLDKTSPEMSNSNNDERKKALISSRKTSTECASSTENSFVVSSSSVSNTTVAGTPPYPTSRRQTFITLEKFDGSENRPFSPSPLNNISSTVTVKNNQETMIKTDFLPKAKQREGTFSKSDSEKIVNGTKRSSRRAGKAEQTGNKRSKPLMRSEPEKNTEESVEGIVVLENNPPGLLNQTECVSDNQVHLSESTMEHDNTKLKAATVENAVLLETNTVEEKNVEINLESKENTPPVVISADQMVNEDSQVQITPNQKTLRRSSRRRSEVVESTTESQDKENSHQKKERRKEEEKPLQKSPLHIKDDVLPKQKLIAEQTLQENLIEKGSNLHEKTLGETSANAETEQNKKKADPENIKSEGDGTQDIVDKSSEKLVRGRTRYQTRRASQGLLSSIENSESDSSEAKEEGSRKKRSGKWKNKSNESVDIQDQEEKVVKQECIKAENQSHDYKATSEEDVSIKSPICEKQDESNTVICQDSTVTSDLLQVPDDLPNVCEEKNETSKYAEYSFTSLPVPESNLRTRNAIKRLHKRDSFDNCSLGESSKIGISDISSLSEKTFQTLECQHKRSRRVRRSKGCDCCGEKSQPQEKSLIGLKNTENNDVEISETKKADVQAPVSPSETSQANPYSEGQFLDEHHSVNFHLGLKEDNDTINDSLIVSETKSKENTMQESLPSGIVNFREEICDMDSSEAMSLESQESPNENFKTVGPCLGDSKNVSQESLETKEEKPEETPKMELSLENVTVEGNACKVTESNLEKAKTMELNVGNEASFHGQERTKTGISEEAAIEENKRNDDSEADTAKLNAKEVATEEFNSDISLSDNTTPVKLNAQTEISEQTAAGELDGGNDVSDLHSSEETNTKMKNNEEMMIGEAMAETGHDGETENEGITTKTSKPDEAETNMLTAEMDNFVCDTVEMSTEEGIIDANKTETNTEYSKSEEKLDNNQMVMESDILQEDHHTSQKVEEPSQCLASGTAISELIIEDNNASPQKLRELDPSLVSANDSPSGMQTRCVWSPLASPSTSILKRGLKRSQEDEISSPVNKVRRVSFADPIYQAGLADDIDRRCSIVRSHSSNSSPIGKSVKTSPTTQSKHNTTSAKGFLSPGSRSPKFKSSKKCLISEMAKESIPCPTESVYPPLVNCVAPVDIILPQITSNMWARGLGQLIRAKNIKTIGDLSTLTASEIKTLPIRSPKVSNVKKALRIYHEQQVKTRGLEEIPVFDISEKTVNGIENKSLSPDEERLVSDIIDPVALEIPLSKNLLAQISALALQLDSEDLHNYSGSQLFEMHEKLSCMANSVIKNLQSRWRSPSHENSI
UniProt Q8IYW5, whole entry, looked up: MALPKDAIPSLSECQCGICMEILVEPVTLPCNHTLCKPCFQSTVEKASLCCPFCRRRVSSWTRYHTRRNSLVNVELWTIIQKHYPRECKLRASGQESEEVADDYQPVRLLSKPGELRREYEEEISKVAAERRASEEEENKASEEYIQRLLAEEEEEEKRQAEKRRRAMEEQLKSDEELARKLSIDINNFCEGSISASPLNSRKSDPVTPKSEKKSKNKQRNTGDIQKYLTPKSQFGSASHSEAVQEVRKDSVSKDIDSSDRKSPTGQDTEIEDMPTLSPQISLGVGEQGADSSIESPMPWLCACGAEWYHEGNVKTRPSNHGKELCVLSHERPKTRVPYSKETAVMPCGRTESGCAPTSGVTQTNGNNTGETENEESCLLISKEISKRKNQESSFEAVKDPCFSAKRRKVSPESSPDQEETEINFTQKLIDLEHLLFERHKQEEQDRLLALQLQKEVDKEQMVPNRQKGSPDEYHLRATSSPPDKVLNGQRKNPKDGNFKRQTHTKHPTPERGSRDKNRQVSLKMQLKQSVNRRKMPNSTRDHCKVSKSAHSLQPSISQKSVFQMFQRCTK
UniProt Q969X0: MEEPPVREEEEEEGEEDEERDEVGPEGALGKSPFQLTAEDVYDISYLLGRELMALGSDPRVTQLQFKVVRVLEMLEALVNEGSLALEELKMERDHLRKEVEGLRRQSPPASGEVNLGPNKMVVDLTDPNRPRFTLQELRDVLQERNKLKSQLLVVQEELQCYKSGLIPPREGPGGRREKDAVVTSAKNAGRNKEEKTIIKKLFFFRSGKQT
UniProt Q9NVN3: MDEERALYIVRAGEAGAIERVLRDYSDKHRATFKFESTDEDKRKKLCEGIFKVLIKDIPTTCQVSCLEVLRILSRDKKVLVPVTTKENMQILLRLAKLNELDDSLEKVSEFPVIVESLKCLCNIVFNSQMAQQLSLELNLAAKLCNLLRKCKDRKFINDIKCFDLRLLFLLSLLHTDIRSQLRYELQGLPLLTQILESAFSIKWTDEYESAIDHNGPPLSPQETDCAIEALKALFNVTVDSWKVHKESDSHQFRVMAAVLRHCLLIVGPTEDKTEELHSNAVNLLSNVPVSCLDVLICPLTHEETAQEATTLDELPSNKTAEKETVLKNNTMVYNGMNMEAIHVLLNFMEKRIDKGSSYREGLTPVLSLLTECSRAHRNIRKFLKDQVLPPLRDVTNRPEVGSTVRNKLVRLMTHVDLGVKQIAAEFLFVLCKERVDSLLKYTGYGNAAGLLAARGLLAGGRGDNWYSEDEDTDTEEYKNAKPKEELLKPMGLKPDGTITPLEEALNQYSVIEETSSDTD
UniProt Q92546: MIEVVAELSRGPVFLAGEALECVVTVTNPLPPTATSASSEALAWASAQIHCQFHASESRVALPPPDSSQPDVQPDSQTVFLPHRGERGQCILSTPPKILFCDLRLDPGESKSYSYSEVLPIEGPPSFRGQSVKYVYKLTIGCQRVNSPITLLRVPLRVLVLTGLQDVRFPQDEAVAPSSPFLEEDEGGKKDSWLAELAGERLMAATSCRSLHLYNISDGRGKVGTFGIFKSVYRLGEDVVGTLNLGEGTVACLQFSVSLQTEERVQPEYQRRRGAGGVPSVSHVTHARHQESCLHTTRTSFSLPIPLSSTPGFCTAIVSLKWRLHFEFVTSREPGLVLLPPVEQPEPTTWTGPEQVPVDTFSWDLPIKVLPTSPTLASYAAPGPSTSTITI
UniProt Q9Y580: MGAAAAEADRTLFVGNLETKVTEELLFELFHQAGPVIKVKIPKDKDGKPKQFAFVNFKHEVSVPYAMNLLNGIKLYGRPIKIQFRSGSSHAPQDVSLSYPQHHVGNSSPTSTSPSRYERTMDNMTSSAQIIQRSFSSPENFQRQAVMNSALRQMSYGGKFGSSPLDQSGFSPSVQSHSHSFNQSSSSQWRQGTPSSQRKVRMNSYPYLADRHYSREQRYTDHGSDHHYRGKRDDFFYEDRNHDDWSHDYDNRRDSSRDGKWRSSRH
UniProt Q5VTB9: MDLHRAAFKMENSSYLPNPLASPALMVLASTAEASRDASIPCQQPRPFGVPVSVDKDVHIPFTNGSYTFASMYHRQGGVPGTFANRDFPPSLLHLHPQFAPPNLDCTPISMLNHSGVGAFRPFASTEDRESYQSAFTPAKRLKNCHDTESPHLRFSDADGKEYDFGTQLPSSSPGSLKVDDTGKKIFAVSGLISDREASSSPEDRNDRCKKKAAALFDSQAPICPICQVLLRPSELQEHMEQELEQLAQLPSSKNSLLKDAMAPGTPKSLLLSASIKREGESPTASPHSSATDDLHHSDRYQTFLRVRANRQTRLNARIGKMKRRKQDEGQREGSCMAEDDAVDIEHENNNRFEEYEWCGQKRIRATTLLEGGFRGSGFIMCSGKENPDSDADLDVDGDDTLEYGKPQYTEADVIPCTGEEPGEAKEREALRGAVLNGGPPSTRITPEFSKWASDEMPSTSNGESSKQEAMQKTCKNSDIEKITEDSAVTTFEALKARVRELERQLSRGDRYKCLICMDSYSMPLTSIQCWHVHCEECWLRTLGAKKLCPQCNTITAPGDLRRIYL
UniProt Q8NCN4: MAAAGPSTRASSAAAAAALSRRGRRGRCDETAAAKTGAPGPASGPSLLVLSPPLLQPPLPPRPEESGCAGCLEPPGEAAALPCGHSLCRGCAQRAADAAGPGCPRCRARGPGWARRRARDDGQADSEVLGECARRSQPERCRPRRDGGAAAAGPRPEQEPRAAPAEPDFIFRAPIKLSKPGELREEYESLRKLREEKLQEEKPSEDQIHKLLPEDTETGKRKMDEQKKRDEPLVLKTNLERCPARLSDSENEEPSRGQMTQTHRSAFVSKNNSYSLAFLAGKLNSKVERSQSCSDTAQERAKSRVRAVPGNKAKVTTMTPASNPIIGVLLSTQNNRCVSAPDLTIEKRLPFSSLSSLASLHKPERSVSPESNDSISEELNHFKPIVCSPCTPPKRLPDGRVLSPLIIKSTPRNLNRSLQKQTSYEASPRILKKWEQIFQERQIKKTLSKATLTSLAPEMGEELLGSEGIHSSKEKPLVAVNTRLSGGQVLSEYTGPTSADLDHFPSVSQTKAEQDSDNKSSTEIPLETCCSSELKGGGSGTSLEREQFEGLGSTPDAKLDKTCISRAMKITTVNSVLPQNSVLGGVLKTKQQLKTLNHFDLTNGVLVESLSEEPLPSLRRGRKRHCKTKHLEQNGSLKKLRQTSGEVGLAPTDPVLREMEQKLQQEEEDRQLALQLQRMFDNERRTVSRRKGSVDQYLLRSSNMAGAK
UniProt Q9H4X1: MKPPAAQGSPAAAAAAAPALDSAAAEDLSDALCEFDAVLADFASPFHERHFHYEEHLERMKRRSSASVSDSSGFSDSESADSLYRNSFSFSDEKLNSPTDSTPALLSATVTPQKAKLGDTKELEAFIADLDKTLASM

Experiments:
Test in all cases: log2 fold change, soluble protein after heating vs DMSO (PISA); higher = thermal stabilisation; K562 cells, 10 uM, 30 min; active = over 0.2 and 3.5 SD of the protein, either way, in both replicates (recomputed)
ibrutinib = compound: C=CC(=O)N1CCC[C@@H](n2nc(-c3ccc(Oc4ccccc4)cc3)c3c(N)ncnc32)C1 [ibrutinib]
In short: (§1)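 K562 cells at 2×10^6 cells/mL were exposed to 10 μM compound for 30 min, then aliquots were heated for 3 min across 48°C-58°C, pooled, and extracted in PBS containing 0.5% NP-40 at 4°C. The supernatant after 21,000xg for 90 min was taken as soluble protein and measured by TMTpro 16plex LC-MS/MS with channel sums equalised. Thermal stability is reported relative to control samples, with values from duplicates. Fold changes are given on a log2 scale.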

[1] = compound: CC(=O)c1cnc2ccc(-c3cc(Cl)c(O)c(Cl)c3)nc2c1N[C@H]1CC[C@H](CN(C)C)CC1
In short: as §1

[2] = compound: CC(C)(O)CC(=O)NCCn1ccc2ncnc(Nc3ccc(Oc4cccc(C(F)(F)F)c4)c(Cl)c3)c21
In short: as §1

[3] = compound: CC(C)C1=C2N=C(C=C(N2N=C1)NCC3=CC=CC=C3)NCCCCCCN
In short: as §1

[4] = compound: CC1=C(C(CC(=O)N1)C2=CC=C(C=C2)C(F)(F)F)C(=O)NC3=C(C=C4C(=C3)C=NN4)F
In short: as §1

[5] = compound: CC1=C(C2=C(C=C1)C(=O)C3=CC=CC=C3N2CCCN)C
In short: as §1

[6] = compound: CC1=C(C=C(C=C1)NC(=O)C2=CC(=CC=C2)C(C)(C)C#N)NC3=CC4=C(C=C3)N=CN(C4=O)C
In short: as §1

[7] = compound: CC1=CC=C(C=C1)SC2=C3C=C(SC3=CN=C2)C(=O)N
In short: as §1

Nexturastat A = compound: CCCCN(Cc1ccc(C(=O)NO)cc1)C(=O)Nc1ccccc1 [Nexturastat A]
In short: as §1

vemurafenib = compound: CCCS(=O)(=O)Nc1ccc(F)c(C(=O)c2c[nH]c3ncc(-c4ccc(Cl)cc4)cc23)c1F [vemurafenib]
In short: as §1

[8] = compound: CCCS(=O)(=O)Nc1ccc(F)c(C(=O)c2c[nH]c3ncc(Cl)cc23)c1F
In short: as §1

[9] = compound: CCCc1cc(C)[nH]c(=O)c1CNC(=O)c1cc(-c2ccnc(N3CCN(C)CC3)c2)cc2c1cnn2C(C)C
In short: as §1

givinostat = compound: CCN(CC)Cc1ccc2cc(COC(=O)Nc3ccc(C(=O)NO)cc3)ccc2c1 [givinostat]
In short: as §1

barasertib = compound: CCN(CCCOc1ccc2c(Nc3cc(CC(=O)Nc4cccc(F)c4)[nH]n3)ncnc2c1)CCOP(=O)(O)O [barasertib]
In short: as §1

IRAK-1-4 Inhibitor I = compound: C1COCCN1CCN2C3=CC=CC=C3N=C2NC(=O)C4=CC(=CC=C4)[N+](=O)[O-] [IRAK-1-4 Inhibitor I]
In short: as §1

pinometostat = compound: CC(C)N(C[C@H]1O[C@@H](n2cnc3c(N)ncnc32)[C@H](O)[C@@H]1O)[C@H]1C[C@@H](CCc2nc3cc(C(C)(C)C)ccc3[nH]2)C1 [pinometostat]
In short: as §1

[10] = compound: CC1=NC(=CC=C1)C2=C(N=C(N2)C(C)(C)C)C3=CC4=NC=CN=C4C=C3
In short: as §1

ralimetinib = compound: CC(C)(C)Cn1c(N)nc2ccc(-c3[nH]c(C(C)(C)C)nc3-c3ccc(F)cc3)nc21 [ralimetinib]
In short: as §1

[11] = compound: CC(C)C[C@@H](C=O)NC(=O)[C@H](CC(C)C)NC(=O)[C@H](CC(C)C)NC(=O)OCc1ccccc1
In short: as §1

[12] = compound: CC1=C(C=C(C=C1)NC(=O)C2=CC(=CC=C2)N(C)C)NC(=O)C3=CC=C(C=C3)O
In short: as §1

Measured: log2 fold change

RNF138 (UniProt Q8WVD3)
inactive: ibrutinib -0.032 | [1] -0.31 | [2] -0.036 | [3] -0.074 | [4] 0.098 | [5] -0.092 | [6] 0.036 | [7] 0.138 | Nexturastat A -0.082 | vemurafenib 0.086 | [8] 0.042 | [9] 0.048 | givinostat 0.033 | barasertib 0.037

RIT1 isoform 3 (UniProt Q92963)
inactive: IRAK-1-4 Inhibitor I -0.049 | [2] 0.099 | [3] 0.366 | pinometostat -0.127 | [10] 0.08 | Nexturastat A -0.125 | givinostat -0.084

RNF111 isoform 3 (UniProt Q6ZNA4)
inactive: IRAK-1-4 Inhibitor I 0.105 | [3] -0.092 | pinometostat 0.202 | [4] -0.009 | [10] 0.041 | givinostat 0.115

RNF185 (UniProt Q96GF1)
inactive: ibrutinib 0.045 | [1] 0.087 | ralimetinib -0.04 | [3] -0.011 | [11] -0.003 | [5] 0.276 | [12] -0.055 | [7] -0.074 | vemurafenib 0.009 | [8] 0.1 | [9] -0.081 | givinostat -0.013 | barasertib 0.055

Taken from the listing (2 entries):
RIT1 isoform 3 (UniProt Q92963)
inactive: IRAK-1-4 Inhibitor I -0.049 | [2] 0.099 | [3] 0.366 | pinometostat -0.127 | [10] 0.08 | Nexturastat A -0.125 | givinostat -0.084

RNF111 isoform 3 (UniProt Q6ZNA4)
inactive: IRAK-1-4 Inhibitor I 0.105 | [3] -0.092 | pinometostat 0.202 | [4] -0.009 | [10] 0.041 | givinostat 0.115

The list continues.

RIF1 (UniProt Q5UIP0)
inactive: ralimetinib 0.092 | [2] 0.15 | [3] -0.349 | [11] 0.27 | [4] 0.015 | [5] 0.1 | [6] 0.198 | [12] -0.069 | [7] -0.021 | Nexturastat A 0.006 | vemurafenib -0.155 | [8] 0.075 | givinostat -0.13

RNF168 (UniProt Q8IYW5)
inactive: ibrutinib -0.01 | [1] -0.124 | ralimetinib 0.084 | [3] -0.03 | [11] 0.013 | [4] -0.143 | [5] -0.057 | [6] 0.171 | [12] -0.206 | [7] 0.111 | [8] -0.02 | [9] -0.291 | givinostat 0.052 | barasertib 0.002

RILPL2 (UniProt Q969X0)
inactive: [2] 0 | Nexturastat A -0.035

RIC8B isoform 1 (UniProt Q9NVN3)
inactive: IRAK-1-4 Inhibitor I 0.15 | [2] -0.187 | [3] -0.143 | pinometostat -0.025 | [10] -0.005 | Nexturastat A -0.28 | givinostat 0.226

RFXANK (UniProt O14593)
inactive: [2] -0.198 | Nexturastat A 0.47

RGP1 (UniProt Q92546)
inactive: ibrutinib 0.081 | [1] -0.072 | ralimetinib -0.012 | [2] -0.007 | [3] -0.114 | [11] 0.385 | [4] -0.046 | [5] 0.205 | [6] -0.039 | [12] -0.017 | Nexturastat A -0.034 | vemurafenib -0.166 | [9] -0.195 | givinostat -0.023 | barasertib 0.029

RMDN2 isoform 2 (UniProt Q96LZ7)
inactive: IRAK-1-4 Inhibitor I 0.034 | ralimetinib 0.095 | [11] 0.137 | pinometostat 0.025 | [12] -0.022 | [10] -0.127 | vemurafenib 0.217 | [9] -0.196

RBM7 (UniProt Q9Y580)
inactive: ralimetinib 0.077 | [2] -0.098 | [3] -0.025 | [11] -0.14 | [4] 0.032 | [5] 0.23 | [6] -0.307 | [12] -0.167 | [7] 0.018 | Nexturastat A 0.154 | vemurafenib -0.024 | [8] -0.224 | [9] -0.002 | givinostat 0.13

RICTOR isoform 3 (UniProt Q6R327)
inactive: [2] -0.084 | [3] -0.584 | [5] -0.223 | [6] -0.09 | [7] 0.074 | Nexturastat A 0.25 | [8] 0.018 | givinostat -0.057
active: [1] 0.866

RNF220 isoform 3 (UniProt Q5VTB9)
inactive: [1] 0.086 | [3] 0.056 | [7] 0.385 | [8] 0.201 | givinostat -0.059

RFC1 (UniProt P35251)
inactive: [1] 0.071 | ralimetinib 0.1 | [11] 0.173 | [5] 0.263 | [6] 0.063 | [12] -0.081 | vemurafenib -0.088

RNF169 (UniProt Q8NCN4)
inactive: [5] 0.152 | [7] 0.034 | [8] -0.103

RGCC (UniProt Q9H4X1)
inactive: ibrutinib -0.056 | [1] -0.156 | [3] -0.056 | [4] -0.346 | givinostat -0.027 | barasertib -0.049
